In article PMC6692047, “Ddc2^ATRIP promotes Mec1^ATR activation at RPA-ssDNA tracts” (PLoS Genetics, 2019):
These are yes or no findings as the source states them, for the method shown. Some results given as binding are weak or reduced against the parent protein; the word gives no strength. Tags and fused reporters may be left off the sequences shown.

Protein sequences, listed by entry. Tags and fused reporters are not part of them.
UniProt P38111: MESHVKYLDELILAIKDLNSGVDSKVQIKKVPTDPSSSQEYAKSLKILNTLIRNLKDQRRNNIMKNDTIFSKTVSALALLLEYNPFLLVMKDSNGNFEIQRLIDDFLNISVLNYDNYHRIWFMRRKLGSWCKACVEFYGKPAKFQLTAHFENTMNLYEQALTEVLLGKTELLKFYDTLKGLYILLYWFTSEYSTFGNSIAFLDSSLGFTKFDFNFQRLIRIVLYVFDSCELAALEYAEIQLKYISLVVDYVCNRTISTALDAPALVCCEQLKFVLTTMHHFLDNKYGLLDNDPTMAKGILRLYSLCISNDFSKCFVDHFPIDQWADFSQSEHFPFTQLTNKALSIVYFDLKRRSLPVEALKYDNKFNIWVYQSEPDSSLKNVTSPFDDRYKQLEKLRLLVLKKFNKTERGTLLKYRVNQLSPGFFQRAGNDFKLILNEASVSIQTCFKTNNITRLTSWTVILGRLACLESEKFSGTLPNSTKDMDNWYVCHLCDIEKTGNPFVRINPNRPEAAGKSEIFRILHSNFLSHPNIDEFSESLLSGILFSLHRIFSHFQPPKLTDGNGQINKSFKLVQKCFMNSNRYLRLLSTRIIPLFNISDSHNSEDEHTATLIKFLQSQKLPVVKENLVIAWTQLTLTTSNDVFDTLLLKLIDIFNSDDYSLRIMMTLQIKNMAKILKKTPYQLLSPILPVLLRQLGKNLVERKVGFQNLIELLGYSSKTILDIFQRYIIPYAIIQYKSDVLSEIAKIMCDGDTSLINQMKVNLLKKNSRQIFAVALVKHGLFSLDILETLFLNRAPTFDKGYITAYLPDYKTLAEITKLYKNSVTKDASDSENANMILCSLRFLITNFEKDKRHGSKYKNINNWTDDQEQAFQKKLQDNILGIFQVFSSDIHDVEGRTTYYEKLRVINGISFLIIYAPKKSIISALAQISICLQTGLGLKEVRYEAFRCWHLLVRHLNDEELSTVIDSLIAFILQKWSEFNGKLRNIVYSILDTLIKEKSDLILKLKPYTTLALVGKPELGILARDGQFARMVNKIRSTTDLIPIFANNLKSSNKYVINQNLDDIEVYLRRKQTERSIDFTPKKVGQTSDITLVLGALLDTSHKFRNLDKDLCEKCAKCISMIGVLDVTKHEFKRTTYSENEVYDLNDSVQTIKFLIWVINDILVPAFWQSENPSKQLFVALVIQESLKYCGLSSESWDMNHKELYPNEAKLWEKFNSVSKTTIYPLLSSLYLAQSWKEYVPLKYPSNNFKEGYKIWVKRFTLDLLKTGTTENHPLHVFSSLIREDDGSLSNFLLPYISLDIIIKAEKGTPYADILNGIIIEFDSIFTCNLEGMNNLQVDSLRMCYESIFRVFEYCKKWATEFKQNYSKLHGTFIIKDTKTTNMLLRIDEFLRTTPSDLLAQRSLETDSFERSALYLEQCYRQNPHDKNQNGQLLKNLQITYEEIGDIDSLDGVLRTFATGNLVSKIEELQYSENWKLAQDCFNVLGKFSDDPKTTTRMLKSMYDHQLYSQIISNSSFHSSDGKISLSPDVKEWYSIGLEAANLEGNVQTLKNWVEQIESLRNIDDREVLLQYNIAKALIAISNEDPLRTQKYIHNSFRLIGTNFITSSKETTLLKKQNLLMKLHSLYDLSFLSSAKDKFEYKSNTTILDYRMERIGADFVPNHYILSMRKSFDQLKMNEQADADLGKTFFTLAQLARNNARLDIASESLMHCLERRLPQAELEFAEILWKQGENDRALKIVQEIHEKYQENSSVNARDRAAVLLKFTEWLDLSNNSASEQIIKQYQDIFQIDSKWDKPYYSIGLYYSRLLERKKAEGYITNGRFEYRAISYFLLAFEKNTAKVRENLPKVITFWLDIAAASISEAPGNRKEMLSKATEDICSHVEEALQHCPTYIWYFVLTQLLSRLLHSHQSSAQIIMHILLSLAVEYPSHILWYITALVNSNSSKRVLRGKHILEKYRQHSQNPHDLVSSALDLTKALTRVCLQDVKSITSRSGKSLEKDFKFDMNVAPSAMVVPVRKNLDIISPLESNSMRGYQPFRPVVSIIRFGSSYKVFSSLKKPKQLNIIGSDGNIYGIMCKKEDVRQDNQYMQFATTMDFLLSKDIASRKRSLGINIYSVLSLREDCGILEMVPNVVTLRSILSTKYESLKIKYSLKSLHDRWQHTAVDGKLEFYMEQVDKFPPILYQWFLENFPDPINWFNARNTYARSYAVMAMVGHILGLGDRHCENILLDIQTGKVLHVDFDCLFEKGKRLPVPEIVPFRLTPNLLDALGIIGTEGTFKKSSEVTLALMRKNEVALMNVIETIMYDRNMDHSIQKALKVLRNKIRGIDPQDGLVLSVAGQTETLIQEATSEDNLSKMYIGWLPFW

Molecular target: FLAG-tagged Mec1 (budding yeast) (UniProt P38111)
Assay: two-step affinity co-purification; FLAG-Mec1 and His-HA-Ddc2 (or Ddc2-S4) co-overexpressed in yeast; crude extract on ANTI-FLAG-M2 agarose, washes up to 400 mM NaCl, FLAG-peptide eluate on Ni-NTA agarose, imidazole elution; 4°C; SDS-PAGE with Coomassie

binding | Binder
binds | MBP-Ddc2 (natural protein, budding yeast, UniProt Q04377 1-747, looked up, Ddc2 (ATRIP homolog), budding yeast; also called MBP-fused Ddc2; pMAL-Ddc2; source: E. coli Rosetta, purified (amylose resin)) MRRETVGEFSSDDDDDILLELGTRPPRFTQIPPSSAALQTQIPTTLEVTTTTLNNKQSKNDNQLVNQLNKAQGEASMLRDKINFLNIEREKEKNIQAVKVNELQVKHLQELAKLKQELQKLEDEKKFLQMEARGKSKREVITNVKPPSTTLSTNTNTITPDSSSVAIEAKPQSPQSKKRKISDNLLKKNMVPLNPNRIIPDETSLFLESILLHQIIGADLSTIEILNRLKLDYITEFKFKNFVIAKGAPIGKSIVSLLLRCKKTLTLDRFIDTLLEDIAVLIKEISVHPNESKLAVPFLVALMYQIVQFRPSATHNLALKDCFLFICDLIRIYHHVLKVPIHESNMNLHVEPQIFQYELIDYLIISYSFDLLEGILRVLQSHPKQTYMEFFDENILKSFEFVYKLALTISYKPMVNVIFSAVEVVNIITSIILNMDNSSDLKSLISGSWWRDCITRLYALLEKEIKSGDVYNENVDTTTLHMSKYHDFFGLIRNIGDNELGGLISKLIYTDRLQSVPRVISKEDIGMDSDKFTAPIIGYKMEKWLLKLKDEVLNIFENLLMIYGDDATIVNGEMLIHSSKFLSREQALMIERYVGQDSPNLDLRCHLIEHTLTIIYRLWKDHFKQLREEQIKQVESQLIMSLWRFLVCQTETVTANEREMRDHRHLVDSLHDLTIKDQASYYEDAFEDLPEYIEEELKMQLNKRTGRIMQVKYDEKFQEMARTILESKSFDLTTLEEADSLYISMGL
binds | MBP-Ddc2-S4 (natural protein, budding yeast, UniProt Q04377 1-747, looked up, Ddc2 (ATRIP homolog), budding yeast, with the two ddc2-S4 substitutions; also called MBP-fused Ddc2-S4; pMAL-Ddc2-S4; source: E. coli Rosetta, purified (amylose resin)) MRRETVGEFSSDDDDDILLELGTRPPRFTQIPPSSAALQTQIPTTLEVTTTTLNNKQSKNDNQLVNQLNKAQGEASMLRDKINFLNIEREKEKNIQAVKVNELQVKHLQELAKLKQELQKLEDEKKFLQMEARGKSKREVITNVKPPSTTLSTNTNTITPDSSSVAIEAKPQSPQSKKRKISDNLLKKNMVPLNPNRIIPDETSLFLESILLHQIIGADLSTIEILNRLKLDYITEFKFKNFVIAKGAPIGKSIVSLLLRCKETLTLDRFIDTLLEDIAVLIKEISVHPNESKLAVPFLVALMYQIVQFRPSATHNLALKDCFLFICDLIRIYHHVLKVPIHESNMNLHVEPQIFQYELIDYLIISYSFDLLEGILRVLQSYPKQTYMEFFDENILKSFEFVYKLALTISYKPMVNVIFSAVEVVNIITSIILNMDNSSDLKSLISGSWWRDCITRLYALLEKEIKSGDVYNENVDTTTLHMSKYHDFFGLIRNIGDNELGGLISKLIYTDRLQSVPRVISKEDIGMDSDKFTAPIIGYKMEKWLLKLKDEVLNIFENLLMIYGDDATIVNGEMLIHSSKFLSREQALMIERYVGQDSPNLDLRCHLIEHTLTIIYRLWKDHFKQLREEQIKQVESQLIMSLWRFLVCQTETVTANEREMRDHRHLVDSLHDLTIKDQASYYEDAFEDLPEYIEEELKMQLNKRTGRIMQVKYDEKFQEMARTILESKSFDLTTLEEADSLYISMGL
